This test has as its target T1, porcine Gasdermin A (pGSDMA), full-length recombinant protein (pig) (UniProt F1RXA6).
T1 sequence: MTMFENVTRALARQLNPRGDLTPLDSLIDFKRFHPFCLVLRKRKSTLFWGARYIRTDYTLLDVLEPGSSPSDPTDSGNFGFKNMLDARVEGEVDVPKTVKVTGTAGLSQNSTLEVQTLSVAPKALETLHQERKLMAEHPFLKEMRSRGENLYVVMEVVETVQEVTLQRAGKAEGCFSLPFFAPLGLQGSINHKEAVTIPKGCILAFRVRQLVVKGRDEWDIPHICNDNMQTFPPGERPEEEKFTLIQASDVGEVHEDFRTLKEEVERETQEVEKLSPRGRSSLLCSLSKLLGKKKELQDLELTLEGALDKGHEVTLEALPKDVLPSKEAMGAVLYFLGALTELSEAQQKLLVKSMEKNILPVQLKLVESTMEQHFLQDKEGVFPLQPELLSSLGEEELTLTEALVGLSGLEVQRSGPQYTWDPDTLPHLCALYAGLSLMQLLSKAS
In words: co-IP; full-length pGSDMA and WT 3C recombinant proteins mixed in vitro (cell-free system); immunoprecipitated with rabbit anti-HA monoclonal antibody; both purified.

The text below walks through data of PMC11481571.

These are yes or no findings as the source states them, for the method shown. Binding seen in cells or lysates may run through a third protein. A result given as binding can be weak or reduced; the word gives no strength.

Consider “Seneca Valley Virus (SVV) 3C protease, wild-type recombinant protein (enzyme)”, for which the binding result was “binds”.
